In article PMC7144943:
These are yes or no findings as the source states them, for the method shown. In cells and extracts the contact can be indirect. These calls come from enrichment with a bait or labelling near it, and not all partners need be listed. No binding means not detected with the bait.

Sequences of proteins named here, by UniProt entry; tags and fusion partners are left off.
UniProt A1ZAW0: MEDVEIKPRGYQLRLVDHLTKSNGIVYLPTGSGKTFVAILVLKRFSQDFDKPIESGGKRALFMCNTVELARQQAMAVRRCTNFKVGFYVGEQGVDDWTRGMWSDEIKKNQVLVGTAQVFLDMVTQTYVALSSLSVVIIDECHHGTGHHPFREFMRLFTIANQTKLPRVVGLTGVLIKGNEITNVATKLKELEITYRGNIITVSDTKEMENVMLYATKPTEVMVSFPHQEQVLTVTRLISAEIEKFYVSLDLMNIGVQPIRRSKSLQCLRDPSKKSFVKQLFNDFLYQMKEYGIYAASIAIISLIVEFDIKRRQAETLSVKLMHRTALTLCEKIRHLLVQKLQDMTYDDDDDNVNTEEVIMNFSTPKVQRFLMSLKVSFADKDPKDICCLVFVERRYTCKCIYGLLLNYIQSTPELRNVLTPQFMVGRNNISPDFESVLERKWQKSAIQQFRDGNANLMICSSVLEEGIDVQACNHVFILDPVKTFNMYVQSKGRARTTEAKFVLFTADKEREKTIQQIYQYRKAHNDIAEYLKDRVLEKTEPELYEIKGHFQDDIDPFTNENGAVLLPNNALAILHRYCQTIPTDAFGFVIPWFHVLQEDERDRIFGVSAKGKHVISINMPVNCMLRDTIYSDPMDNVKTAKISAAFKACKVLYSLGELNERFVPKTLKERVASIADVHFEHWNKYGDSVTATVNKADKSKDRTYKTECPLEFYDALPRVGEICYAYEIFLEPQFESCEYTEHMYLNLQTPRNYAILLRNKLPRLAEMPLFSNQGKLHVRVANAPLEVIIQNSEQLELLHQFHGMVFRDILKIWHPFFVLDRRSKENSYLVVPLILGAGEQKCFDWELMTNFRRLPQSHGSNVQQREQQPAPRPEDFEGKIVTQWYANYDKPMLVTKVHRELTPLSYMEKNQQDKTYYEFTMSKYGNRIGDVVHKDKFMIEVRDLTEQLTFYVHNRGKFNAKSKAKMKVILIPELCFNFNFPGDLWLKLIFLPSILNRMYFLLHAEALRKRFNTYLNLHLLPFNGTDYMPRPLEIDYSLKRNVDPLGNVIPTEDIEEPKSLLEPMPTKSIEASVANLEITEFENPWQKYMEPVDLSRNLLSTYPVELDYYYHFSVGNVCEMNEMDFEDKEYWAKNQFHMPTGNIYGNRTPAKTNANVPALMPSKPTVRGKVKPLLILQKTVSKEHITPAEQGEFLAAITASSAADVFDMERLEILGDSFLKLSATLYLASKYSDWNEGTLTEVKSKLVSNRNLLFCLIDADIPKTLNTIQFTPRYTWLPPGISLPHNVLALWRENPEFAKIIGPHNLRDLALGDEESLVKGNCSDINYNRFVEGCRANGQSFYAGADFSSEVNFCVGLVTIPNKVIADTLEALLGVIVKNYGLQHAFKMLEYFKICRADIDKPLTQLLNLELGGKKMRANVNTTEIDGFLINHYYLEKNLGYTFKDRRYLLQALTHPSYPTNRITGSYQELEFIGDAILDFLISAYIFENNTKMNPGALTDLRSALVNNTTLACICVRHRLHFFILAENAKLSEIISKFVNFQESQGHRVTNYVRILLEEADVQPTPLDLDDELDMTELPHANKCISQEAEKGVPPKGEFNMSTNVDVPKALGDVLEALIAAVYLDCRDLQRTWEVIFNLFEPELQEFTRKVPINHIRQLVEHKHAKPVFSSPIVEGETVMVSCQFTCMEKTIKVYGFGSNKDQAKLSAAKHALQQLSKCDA

The molecules below were run against Flag-Blanks (knock-in, copper-inducible mtnDE promoter) (Drosophila (endogenous locus in S2 cells)) (UniProt Q9VRL8) (assay: affinity purification with mass spectrometry; Flag-Blanks immunoprecipitations from extracts of the Flag-Blanks knock-in cell line; details in the supplementary information).

Molecule | binding
Ran (from UniProt Q9VZ23 1-216) | binds
Dcr-2 (from UniProt A1ZAW0 1-1722) (enzyme) | no binding

The next lines start with the values.

binding | Molecule
binds | Rcc1 (the Ran guanine nucleotide exchange factor) (protein, UniProt P25171 1-547) MPRRKALTNNNNAGEAEQQPPKAKRARIAFHLELPKRRTVLGNVLVCGNGDVGQLGLGEDILERKRLSPVAGIPDAVDISAGGMHNLVLTKSGDIYSFGCNDEGALGRDTSEDGSESKPDLIDLPGKALCISAGDSHSACLLEDGRVFAWGSFRDSHGNMGLTIDGNKRTPIDLMEGTVCCSIASGADHLVILTTAGKVFTVGCAEQGQLGRLSERSISGEGRRGKRDLLRPTQLIITRAKPFEAIWATNYCTFMRESQTQVIWATGLNNFKQLAHETKGKEFALTPIKTELKDIRHIAGGQHHTVILTTDLKCSVVGRPEYGRLGLGDVKDVVEKPTIVKKLTEKIVSVGCGEVCSYAVTIDGKLYSWGSGVNNQLGVGDGDDELEPIVVVSKNTQGKHMLLASGGGQHAIFLVKADKQDQKENVPVKVSGSSSISKKDKTPPQDNVDKEAENVDKQEQKENLPAKASTSSKKNKTPPQDNADKEAENVDKQEQKENLPAKASTSSKKIKTPPQDDAAEEVEEESAQEPTPKKAKKPAAKRGGKKT
binds | Kap-α3 (an importin-α homolog) (protein, UniProt Q9V455 1-514) MTSMEQNRLQNFKNKGKDQDEMRRRRNEVTVELRKNKREETILKRRNVPNLDSNTDEEEQLSSSIDLKKLAKAAADATKPEQQLAAVQAARKLLSSDKNPPINDLIQSDILPILVECLKQHNHTMLQFEAAWALTNIASGTSAQTNEVVAAGAVPLFLQLLNSPAPNVCEQAVWALGNIIGDGPLLRDFVIKHGVVQPLLSFIKPDIPITFLRNVTWVIVNLCRNKDPAPPTATIHEILPALNVLIHHTDTNILVDTVWAISYLTDGGNDQIQMVIESGVVPKLIPLLGNSEVKVQTAALRAVGNIVTGSDEQTQVVLNYDALSYFPGLLSHPKEKIRKEAVWFLSNITAGNQSQVQAVINVGLLPKIIENLSKGEFQTQKEAAWAISNLTISGNREQVFTLIKEGVIPPFCDLLSCQDTQVINVVLDGLNNMLKVADSHVEAVANCIEECEGLAKIERLQSHENVEIYKLAYEIIDQYFTDEGEQTNMAPTSDGAQYNFDPHADRLTMNSFNF
